This is one part of the list.
compound: Cc1cc(Nc2cc(N3CCN(C)CC3)nc(Sc3ccc(NC(=O)C4CC4)cc3)n2)n[nH]1 [tozasertib]; test: log2 fold change, soluble protein after heating vs DMSO (PISA); higher = thermal stabilisation; K562 lysate, 10 uM; active = over 0.2 and 3.5 SD of the protein, either way, in both replicates (recomputed)
Procedure, shortened: (§1)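 Values give the log-two fold change in thermal stability against solvent controls, from duplicates. Crude K562 extract at 1 mg/mL protein, made by dounce homogenisation in PBS pH 7.4 with 1 mM MgCl2, was treated with 10 μM compound for 30 min. After 3 min heating across 48°C-58°C, aliquots were pooled, adjusted to 0.5% NP-40 at 4°C and centrifuged at 21,000xg for 90 min. The supernatant was measured by TMTpro 16plex LC-MS/MS with channel sums equalised.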

Sequences of proteins named here, by UniProt entry; tags and fusion partners are left off. A change or cut given only in a name is not applied to a line headed by its entry.
UniProt O95182, whole entry, looked up: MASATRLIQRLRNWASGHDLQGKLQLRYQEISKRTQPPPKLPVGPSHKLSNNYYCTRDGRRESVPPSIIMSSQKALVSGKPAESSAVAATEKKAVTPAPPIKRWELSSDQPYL
UniProt Q14934: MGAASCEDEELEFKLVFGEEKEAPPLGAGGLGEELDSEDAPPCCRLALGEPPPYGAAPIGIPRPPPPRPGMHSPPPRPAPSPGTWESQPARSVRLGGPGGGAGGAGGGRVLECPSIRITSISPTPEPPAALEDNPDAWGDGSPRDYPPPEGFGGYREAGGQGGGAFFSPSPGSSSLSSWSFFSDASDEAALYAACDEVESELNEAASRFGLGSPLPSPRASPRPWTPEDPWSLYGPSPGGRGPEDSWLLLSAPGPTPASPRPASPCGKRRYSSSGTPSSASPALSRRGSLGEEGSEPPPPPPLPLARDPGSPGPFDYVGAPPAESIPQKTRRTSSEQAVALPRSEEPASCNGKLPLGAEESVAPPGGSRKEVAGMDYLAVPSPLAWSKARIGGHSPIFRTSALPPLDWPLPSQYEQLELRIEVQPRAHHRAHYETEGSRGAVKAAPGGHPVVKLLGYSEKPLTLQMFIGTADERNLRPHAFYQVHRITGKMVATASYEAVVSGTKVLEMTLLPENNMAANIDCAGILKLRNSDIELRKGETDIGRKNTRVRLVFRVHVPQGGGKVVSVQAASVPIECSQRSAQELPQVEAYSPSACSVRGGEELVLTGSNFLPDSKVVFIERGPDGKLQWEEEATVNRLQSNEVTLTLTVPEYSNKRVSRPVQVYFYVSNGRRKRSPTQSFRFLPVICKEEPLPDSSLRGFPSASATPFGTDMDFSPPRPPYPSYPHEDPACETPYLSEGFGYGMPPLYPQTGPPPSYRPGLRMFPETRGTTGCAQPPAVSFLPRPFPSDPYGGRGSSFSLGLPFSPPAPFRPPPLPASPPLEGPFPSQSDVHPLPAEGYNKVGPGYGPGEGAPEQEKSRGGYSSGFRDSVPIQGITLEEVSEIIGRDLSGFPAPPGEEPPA
UniProt Q9NX24: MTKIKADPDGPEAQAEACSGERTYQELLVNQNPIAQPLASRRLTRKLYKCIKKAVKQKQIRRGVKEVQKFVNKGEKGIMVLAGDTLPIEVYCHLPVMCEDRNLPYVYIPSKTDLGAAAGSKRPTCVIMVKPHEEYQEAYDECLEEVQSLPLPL
UniProt Q12968: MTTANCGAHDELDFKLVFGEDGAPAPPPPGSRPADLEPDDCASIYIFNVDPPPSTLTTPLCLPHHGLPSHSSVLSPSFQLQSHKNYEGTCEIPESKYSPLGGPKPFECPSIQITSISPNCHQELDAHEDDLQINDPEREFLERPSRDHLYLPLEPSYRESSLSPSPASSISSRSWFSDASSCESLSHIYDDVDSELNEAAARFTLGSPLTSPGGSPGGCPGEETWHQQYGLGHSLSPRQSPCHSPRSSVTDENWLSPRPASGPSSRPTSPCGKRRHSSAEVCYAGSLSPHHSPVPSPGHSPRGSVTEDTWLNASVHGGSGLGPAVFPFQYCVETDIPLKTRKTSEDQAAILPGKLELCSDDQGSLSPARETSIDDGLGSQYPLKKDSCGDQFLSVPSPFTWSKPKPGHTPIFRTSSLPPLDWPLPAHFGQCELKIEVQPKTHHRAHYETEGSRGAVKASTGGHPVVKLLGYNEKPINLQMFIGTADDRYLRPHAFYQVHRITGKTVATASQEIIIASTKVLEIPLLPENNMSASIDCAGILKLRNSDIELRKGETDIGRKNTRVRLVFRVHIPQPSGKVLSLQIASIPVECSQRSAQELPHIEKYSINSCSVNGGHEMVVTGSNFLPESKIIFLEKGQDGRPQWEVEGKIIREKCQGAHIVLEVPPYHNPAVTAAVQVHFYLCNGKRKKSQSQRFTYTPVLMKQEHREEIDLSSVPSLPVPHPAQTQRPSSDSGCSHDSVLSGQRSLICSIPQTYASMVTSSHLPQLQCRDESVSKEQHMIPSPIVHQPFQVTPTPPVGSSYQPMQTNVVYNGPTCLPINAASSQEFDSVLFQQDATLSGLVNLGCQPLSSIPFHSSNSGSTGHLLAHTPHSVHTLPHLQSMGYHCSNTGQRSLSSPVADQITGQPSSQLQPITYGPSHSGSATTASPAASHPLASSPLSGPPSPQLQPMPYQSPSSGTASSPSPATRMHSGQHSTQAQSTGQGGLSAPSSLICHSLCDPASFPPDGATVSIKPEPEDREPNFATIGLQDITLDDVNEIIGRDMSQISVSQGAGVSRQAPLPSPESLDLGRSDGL
UniProt Q9NPE2: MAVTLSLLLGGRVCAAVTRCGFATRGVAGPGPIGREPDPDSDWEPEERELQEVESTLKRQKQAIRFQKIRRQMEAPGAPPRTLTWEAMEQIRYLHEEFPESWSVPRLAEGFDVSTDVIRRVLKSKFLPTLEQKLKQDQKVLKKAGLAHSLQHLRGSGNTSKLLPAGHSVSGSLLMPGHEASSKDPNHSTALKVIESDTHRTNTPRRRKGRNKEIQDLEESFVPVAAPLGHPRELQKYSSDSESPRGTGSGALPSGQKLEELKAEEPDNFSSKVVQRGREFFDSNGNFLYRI
UniProt P56556, whole entry, looked up: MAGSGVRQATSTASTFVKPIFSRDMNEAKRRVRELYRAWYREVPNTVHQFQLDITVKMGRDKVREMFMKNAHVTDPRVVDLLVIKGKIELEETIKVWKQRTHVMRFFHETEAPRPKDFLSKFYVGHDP
UniProt P35240: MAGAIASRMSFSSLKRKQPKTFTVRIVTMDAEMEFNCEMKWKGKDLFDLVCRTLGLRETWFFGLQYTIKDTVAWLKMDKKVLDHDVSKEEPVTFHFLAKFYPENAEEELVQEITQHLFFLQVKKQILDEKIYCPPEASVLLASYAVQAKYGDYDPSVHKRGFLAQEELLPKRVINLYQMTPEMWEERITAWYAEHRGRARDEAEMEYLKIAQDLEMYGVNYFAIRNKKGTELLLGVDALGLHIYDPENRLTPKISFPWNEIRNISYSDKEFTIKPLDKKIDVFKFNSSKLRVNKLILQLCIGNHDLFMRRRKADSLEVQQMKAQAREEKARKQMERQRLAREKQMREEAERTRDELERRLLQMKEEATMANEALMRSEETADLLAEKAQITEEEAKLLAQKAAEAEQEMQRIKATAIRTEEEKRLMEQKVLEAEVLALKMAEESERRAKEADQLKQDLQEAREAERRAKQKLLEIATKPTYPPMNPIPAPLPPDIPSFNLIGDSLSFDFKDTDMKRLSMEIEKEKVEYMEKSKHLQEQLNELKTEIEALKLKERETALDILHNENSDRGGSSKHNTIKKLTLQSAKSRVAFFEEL
UniProt Q8WX92, whole entry, looked up: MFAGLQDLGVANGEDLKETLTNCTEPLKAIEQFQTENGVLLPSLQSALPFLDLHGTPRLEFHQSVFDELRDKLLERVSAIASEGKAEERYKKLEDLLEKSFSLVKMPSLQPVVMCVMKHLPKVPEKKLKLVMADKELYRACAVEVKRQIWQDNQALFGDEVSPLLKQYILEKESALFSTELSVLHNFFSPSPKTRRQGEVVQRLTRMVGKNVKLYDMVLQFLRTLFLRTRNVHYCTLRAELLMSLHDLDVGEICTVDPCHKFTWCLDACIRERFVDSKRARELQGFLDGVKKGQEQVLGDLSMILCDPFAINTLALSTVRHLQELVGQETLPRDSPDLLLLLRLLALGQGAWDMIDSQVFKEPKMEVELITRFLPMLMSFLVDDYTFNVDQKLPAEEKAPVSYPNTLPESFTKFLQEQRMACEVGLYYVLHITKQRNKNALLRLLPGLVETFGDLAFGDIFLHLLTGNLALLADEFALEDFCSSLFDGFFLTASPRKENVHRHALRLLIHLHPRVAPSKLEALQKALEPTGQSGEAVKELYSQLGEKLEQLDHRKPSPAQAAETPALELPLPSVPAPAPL
UniProt O75251, whole entry, looked up: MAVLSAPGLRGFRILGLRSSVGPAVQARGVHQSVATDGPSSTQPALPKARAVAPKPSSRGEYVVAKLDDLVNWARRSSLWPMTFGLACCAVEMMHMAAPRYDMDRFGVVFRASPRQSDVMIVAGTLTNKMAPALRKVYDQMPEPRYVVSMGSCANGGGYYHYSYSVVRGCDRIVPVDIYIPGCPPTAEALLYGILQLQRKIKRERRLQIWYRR
UniProt Q12986: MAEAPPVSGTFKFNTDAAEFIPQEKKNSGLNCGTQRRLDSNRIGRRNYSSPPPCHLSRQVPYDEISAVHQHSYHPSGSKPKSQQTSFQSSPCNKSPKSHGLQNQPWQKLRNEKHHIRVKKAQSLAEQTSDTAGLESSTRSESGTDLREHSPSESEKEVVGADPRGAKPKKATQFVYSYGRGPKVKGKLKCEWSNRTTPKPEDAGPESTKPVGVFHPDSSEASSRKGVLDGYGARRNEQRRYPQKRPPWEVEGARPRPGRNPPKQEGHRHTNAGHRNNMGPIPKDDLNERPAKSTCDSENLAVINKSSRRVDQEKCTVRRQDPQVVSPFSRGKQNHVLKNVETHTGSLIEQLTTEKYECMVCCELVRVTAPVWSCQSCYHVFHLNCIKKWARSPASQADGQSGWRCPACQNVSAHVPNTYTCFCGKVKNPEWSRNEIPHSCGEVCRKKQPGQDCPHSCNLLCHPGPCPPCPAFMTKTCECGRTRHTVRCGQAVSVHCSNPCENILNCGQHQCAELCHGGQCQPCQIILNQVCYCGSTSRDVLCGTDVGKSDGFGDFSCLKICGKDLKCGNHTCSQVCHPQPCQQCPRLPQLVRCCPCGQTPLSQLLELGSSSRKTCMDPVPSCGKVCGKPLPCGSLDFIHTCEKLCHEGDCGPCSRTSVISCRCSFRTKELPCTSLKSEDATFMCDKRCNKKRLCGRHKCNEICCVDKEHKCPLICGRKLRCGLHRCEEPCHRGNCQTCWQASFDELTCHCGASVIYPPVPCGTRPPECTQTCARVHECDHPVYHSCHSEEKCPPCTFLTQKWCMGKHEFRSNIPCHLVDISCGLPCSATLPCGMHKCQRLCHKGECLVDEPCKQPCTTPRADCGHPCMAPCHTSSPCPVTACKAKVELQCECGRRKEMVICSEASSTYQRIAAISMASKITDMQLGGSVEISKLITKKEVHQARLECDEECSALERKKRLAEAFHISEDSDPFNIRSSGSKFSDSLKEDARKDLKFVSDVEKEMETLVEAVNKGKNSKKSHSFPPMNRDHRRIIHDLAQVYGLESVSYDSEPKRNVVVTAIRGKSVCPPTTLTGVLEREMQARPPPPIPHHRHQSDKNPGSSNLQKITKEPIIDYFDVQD
UniProt Q9Y6M9, whole entry, looked up: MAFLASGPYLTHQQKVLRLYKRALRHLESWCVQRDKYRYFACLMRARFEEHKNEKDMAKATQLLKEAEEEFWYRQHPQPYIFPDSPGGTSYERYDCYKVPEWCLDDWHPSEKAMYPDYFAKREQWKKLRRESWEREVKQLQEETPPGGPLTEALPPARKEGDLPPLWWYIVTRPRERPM
UniProt O95169, whole entry, looked up: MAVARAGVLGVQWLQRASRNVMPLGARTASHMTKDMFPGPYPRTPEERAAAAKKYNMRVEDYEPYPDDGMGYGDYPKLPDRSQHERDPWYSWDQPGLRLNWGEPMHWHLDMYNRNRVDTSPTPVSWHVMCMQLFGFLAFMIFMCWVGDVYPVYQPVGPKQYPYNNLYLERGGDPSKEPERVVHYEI
UniProt O75323: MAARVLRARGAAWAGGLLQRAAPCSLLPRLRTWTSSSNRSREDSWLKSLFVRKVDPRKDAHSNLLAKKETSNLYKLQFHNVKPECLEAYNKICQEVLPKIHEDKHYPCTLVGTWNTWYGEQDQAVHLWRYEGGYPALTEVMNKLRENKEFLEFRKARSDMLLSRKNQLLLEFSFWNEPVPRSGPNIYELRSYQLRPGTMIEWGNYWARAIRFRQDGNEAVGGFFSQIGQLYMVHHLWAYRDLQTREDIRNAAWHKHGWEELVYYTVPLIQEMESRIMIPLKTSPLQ
UniProt Q8TDX7: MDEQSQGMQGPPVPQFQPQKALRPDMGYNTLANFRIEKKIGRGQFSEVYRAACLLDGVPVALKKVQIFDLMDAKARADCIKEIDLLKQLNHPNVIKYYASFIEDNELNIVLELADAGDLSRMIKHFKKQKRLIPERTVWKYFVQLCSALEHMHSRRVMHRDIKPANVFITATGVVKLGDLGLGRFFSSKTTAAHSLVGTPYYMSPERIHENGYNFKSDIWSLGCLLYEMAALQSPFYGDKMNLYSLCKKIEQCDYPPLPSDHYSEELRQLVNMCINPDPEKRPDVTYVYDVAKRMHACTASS
UniProt Q9NYR9: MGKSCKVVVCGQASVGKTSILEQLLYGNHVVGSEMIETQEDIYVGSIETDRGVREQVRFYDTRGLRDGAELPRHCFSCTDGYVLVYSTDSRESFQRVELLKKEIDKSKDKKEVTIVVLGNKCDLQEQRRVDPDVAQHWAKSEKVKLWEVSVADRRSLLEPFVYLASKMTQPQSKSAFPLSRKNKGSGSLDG
UniProt Q15843, whole entry, looked up: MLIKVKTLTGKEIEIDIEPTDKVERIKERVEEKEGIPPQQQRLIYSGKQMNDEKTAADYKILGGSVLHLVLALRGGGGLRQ
UniProt Q86Y39, whole entry, looked up: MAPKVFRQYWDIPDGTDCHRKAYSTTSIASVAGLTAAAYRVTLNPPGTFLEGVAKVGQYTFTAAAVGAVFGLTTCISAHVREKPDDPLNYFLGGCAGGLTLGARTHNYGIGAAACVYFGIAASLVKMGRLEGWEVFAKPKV

| Target | log2 fold change |
| --- | --- |
| NDUFA7 (UniProt O95182) | inactive: 0.019 |
| NFATC4 isoform 2 (UniProt Q14934) | inactive: 0.084 |
| NHP2 (UniProt Q9NX24) | inactive: 0.057 |
| NFATC3 (UniProt Q12968) | inactive: -0.034 |
| NFAT5 isoform 5 (UniProt O94916) | inactive: -0.039 |
| NGRN (UniProt Q9NPE2) | inactive: 0.044 |
| NDUFA6 (UniProt P56556) | inactive: 0.084 |
| NF2 (UniProt P35240) | inactive: -0.008 |
| NELFB isoform 2 (UniProt Q8WX92) | inactive: -0.01 |
| NDUFS7 (UniProt O75251) | inactive: 0.038 |
| NFX1 (UniProt Q12986) | inactive: -0.123 |
| NDUFB9 (UniProt Q9Y6M9) | inactive: -0.018 |
| NDUFB8 (UniProt O95169) | inactive: 0.059 |
| NF1 (UniProt P21359) | inactive: -0.014 |
| NIPSNAP2 (UniProt O75323) | inactive: 0.007 |
| NEK7 (UniProt Q8TDX7) | inactive: -0.022 |
| NKIRAS2 (UniProt Q9NYR9) | inactive: -0.025 |

compound: Cc1ccc(-n2nc(C(C)(C)C)cc2NC(=O)Nc2ccc(OCCN3CCOCC3)c3ccccc23)cc1 [doramapimod]; test: as above
Procedure, shortened: as §1

| Target | log2 fold change |
| --- | --- |
| NIPSNAP3A (UniProt Q9UFN0) | inactive: -0.029 |
| NEDD8 (UniProt Q15843) | inactive: -0.049 |
| NDUFAF4 (UniProt Q9P032) | inactive: 0.009 |
| NDUFV1 (UniProt P49821) | inactive: 0.014 |
| NEU1 (UniProt Q99519) | inactive: -0.006 |
| NDRG2 (UniProt Q9UN36) | inactive: -0.05 |
| NDUFAB1 (UniProt O14561) | inactive: -0.084 |
| NIFK (UniProt Q9BYG3) | inactive: -0.009 |
| NFU1 (UniProt Q9UMS0) | inactive: -0.053 |
| NDC80 (UniProt O14777) | inactive: -0.002 |
| NEDD1 isoform 3 (UniProt Q8NHV4) | inactive: -0.013 |
| NIP7 (UniProt Q9Y221) | inactive: -0.005 |
| NIT1 (UniProt Q86X76) | inactive: -0.001 |
| NDUFA10 (UniProt O95299) | inactive: -0.037 |
| NFIC (UniProt P08651) | inactive: 0.139 |
| NLRP2 (UniProt Q9NX02) | inactive: 0.051 |
| NEDD4 isoform 4 (UniProt P46934) | inactive: -0.037 |
| NDRG3 (UniProt Q9UGV2) | inactive: -0.017 |
| NFKBIE (UniProt O00221) | inactive: 0.031 |
| NEPRO (UniProt Q6NW34) | inactive: 0.153 |

| Target | log2 fold change |
| --- | --- |
| NDUFA11 (UniProt Q86Y39) | inactive: -0.001 |
| NGLY1 (UniProt Q96IV0) | inactive: -0.013 |
| NFS1 (UniProt Q9Y697) | inactive: -0.032 |
| NDUFA7 (UniProt O95182) | inactive: -0.047 |
| NFATC4 isoform 2 (UniProt Q14934) | inactive: 0.026 |
| NHP2 (UniProt Q9NX24) | inactive: -0.038 |
| NFATC3 (UniProt Q12968) | inactive: -0.041 |
| NFAT5 isoform 5 (UniProt O94916) | inactive: 0.007 |
| NGRN (UniProt Q9NPE2) | inactive: -0.03 |
| NDUFA6 (UniProt P56556) | inactive: 0.112 |
| NF2 (UniProt P35240) | inactive: 0 |
| NELFB isoform 2 (UniProt Q8WX92) | inactive: 0.001 |
| NDUFS7 (UniProt O75251) | inactive: 0.027 |
| NFX1 (UniProt Q12986) | inactive: -0.017 |
| NDUFB9 (UniProt Q9Y6M9) | inactive: -0.034 |
| NDUFB8 (UniProt O95169) | inactive: -0.018 |
| NF1 (UniProt P21359) | inactive: -0.009 |
| NIPSNAP2 (UniProt O75323) | inactive: -0.103 |
| NEK7 (UniProt Q8TDX7) | inactive: 0.016 |
| NKIRAS2 (UniProt Q9NYR9) | inactive: 0.034 |

compound: Cc1ccc(NC(=O)c2ccc(CN3CC[C@H](N(C)C)C3)c(C(F)(F)F)c2)cc1Nc1nccc(-c2cncnc2)n1 [bafetinib]; test: as above
Procedure, shortened: as §1

| Target | log2 fold change |
| --- | --- |
| NIPSNAP3A (UniProt Q9UFN0) | inactive: 0.061 |
| NEDD8 (UniProt Q15843) | inactive: -0.117 |
| NDUFAF4 (UniProt Q9P032) | inactive: -0.058 |
| NDUFV1 (UniProt P49821) | inactive: -0.003 |
| NEU1 (UniProt Q99519) | inactive: 0.035 |
| NDRG2 (UniProt Q9UN36) | inactive: 0.046 |
| NDUFAB1 (UniProt O14561) | inactive: -0.055 |
| NIFK (UniProt Q9BYG3) | inactive: -0.026 |
| NFU1 (UniProt Q9UMS0) | inactive: -0.002 |
| NDC80 (UniProt O14777) | inactive: 0.042 |
| NEDD1 isoform 3 (UniProt Q8NHV4) | inactive: -0.002 |
| NIP7 (UniProt Q9Y221) | inactive: -0.029 |
| NIT1 (UniProt Q86X76) | inactive: 0.005 |
| NDUFA10 (UniProt O95299) | inactive: 0.065 |
| NFIC (UniProt P08651) | inactive: -0.038 |
| NLRP2 (UniProt Q9NX02) | inactive: -0.023 |
| NEDD4 isoform 4 (UniProt P46934) | inactive: -0.033 |
| NDRG3 (UniProt Q9UGV2) | inactive: -0.005 |
| NFKBIE (UniProt O00221) | inactive: 0.012 |
| NEPRO (UniProt Q6NW34) | inactive: -0.131 |

| Target | log2 fold change |
| --- | --- |
| NDUFA11 (UniProt Q86Y39) | inactive: 0.055 |
| NGLY1 (UniProt Q96IV0) | inactive: -0.048 |
| NFS1 (UniProt Q9Y697) | inactive: 0.004 |
| NDUFA7 (UniProt O95182) | inactive: -0.085 |
| NFATC4 isoform 2 (UniProt Q14934) | inactive: -0.305 |
| NHP2 (UniProt Q9NX24) | inactive: 0.037 |
| NFATC3 (UniProt Q12968) | inactive: -0.012 |
| NFAT5 isoform 5 (UniProt O94916) | inactive: -0.041 |
| NGRN (UniProt Q9NPE2) | inactive: 0.018 |
| NDUFA6 (UniProt P56556) | inactive: 0.017 |
| NF2 (UniProt P35240) | inactive: -0.081 |
| NELFB isoform 2 (UniProt Q8WX92) | inactive: -0.005 |
| NDUFS7 (UniProt O75251) | inactive: -0.065 |
| NFX1 (UniProt Q12986) | inactive: 0.021 |
| NDUFB9 (UniProt Q9Y6M9) | inactive: 0.075 |
| NDUFB8 (UniProt O95169) | inactive: -0.014 |
| NF1 (UniProt P21359) | inactive: -0.041 |
| NIPSNAP2 (UniProt O75323) | inactive: 0.004 |
| NEK7 (UniProt Q8TDX7) | inactive: -0.026 |
| NKIRAS2 (UniProt Q9NYR9) | inactive: -0.082 |

From the supplement of paper PMC10849652
